Patent US10383335B2, “Bicyclic pyrazole pesticides” (FMC Corporation, priority 2015, dated 2019)
Some entries share one result that the patent states for a list of compounds.

Key:
[1] = system: green peach aphid (Myzus persicae (Sulzer)); experiment: Test A: control of green peach aphid on radish plant, spray, contact and/or systemic; type: in vivo; conditions: sprayed at 250 ppm, assessed after 6 days
Description: (§1) Test compounds were formulated using a solution containing 10% acetone, 90% water and 300 ppm X-77® Spreader Lo-Foam Formula non-ionic surfactant containing alkylarylpolyoxyethylene, free fatty acids, glycols and isopropanol (Loveland Industries, Inc. Greeley, Colo., USA). The formulated compounds were applied in 1 mL of liquid through a SUJ2 atomizer nozzle with ⅛ JJ custom body (Spraying Systems Co. Wheaton, Ill., USA) positioned 1.27 cm (0.5 inches) above the top of each test unit. Test compounds were sprayed at the rates indicated, and each test was replicated three times.
For evaluating control of green peach aphid (Myzus persicae (Sulzer)) through contact and/or systemic means, the test unit consisted of a small open container with a 12-15-day-old radish plant inside. This was pre-infested by placing on a leaf of the test plant 30-40 aphids on a piece of leaf excised from a culture plant (cut-leaf method). The aphids moved onto the test plant as the leaf piece desiccated. After pre-infestation, the soil of the test unit was covered with a layer of sand.
Test compounds were formulated and sprayed at 250 and/or 50 ppm. After spraying of the formulated test compound, each test unit was allowed to dry for 1 hour and then a black, screened cap was placed on top. […] Each test unit was then visually assessed for insect mortality.

[2] = system: cotton melon aphid (Aphis gossypii (Glover)); experiment: Test B: control of cotton melon aphid on cotton plant, spray, contact and/or systemic; type: in vivo; conditions: sprayed at 250 ppm, assessed after 6 days
Description: as §1
For evaluating control of cotton melon aphid (Aphis gossypii (Glover)) through contact and/or systemic means, the test unit consisted of a small open container with a 6-7-day-old cotton plant inside. This was pre-infested with 30-40 insects on a piece of leaf according to the cut-leaf method, and the soil of the test unit was covered with a layer of sand.
Test compounds were formulated and sprayed at 250 and/or 50 ppm. After spraying, the test units were maintained in a growth chamber for 6 days at 19° C. and 70% relative humidity. Each test unit was then visually assessed for insect mortality.

2,4,6,7-tetrahydro-2-(3-pyridinyl)-N-(2,2,2-trifluoromethyl)-5H-pyrazolo[4,3-c]pyridine-5-carboxamide [Compound 15]
mortality [1]: at least 80% | mortality [2]: at least 80%
